# The supplement of paper PMC8728848
# Some of the results follow.
# B1: Wzz (Escherichia coli) (protein)
# chain: MRTWKFPSVRVMMRVENNNVSGQNHDPEQIDLIDLLVQLWRGKMTIIISVIVAIVLAIGYLAVAKEKWTSTAIITQPDVGQIAGYNNAMNVIYGQAAPKVSDLQETLIGRFSSAFSALAETLDNQEEPEKLTIEPSVKNQQLPLTVSYVGQTAEGAQMKLAQYIQQVDDKVNQELEKDLKDNIALGRKNLQDSLRTQEVVAQEQKDLRIRQIQEALQYANQAQVTKPQIQQTGEDITQDTLFLLGSEALESMIKHEATRPLVFSSNYYQTRQNLLDIDNLDVDKLDIHAYLYVMKPTLPIRRDSPKKAITLILAVLLGGMVGAGIVLGRNALRNYNAK
# Assays:
# Test in all cases: glycan array binding signal (z-score within array); higher = stronger binding
# Details in all cases: glycan notation: IUPAC condensed, linker removed
# [1] = target: Neu5Ac(a2-3)Gal(b1-4)GlcNAc(b1-2)[Neu5Ac(a2-3)Gal(b1-4)GlcNAc(b1-4)]Man(a1-3)[GlcNAc(b1-4)][Neu5Ac(a2-3)Gal(b1-4)GlcNAc(b1-2)[Neu5Ac(a2-3)Gal(b1-4)GlcNAc(b1-6)]Man(a1-6)]Man(b1-4)GlcNAc(b1-4)GlcNAc
# Procedure, shortened: (§1)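 Negative Z-scores can be read as non-binding. The Z-score is calculated within each array and then averaged across arrays of one protein sequence at different concentrations or buffers and across linkers. Arrays, 3228 in all, were curated from the Consortium for Functional Glycomics database and kept only where the protein sequence was available.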
# [2] = target: Neu5Ac(a2-3)Gal(b1-4)GlcNAc(b1-2)[Neu5Ac(a2-3)Gal(b1-4)GlcNAc(b1-4)]Man(a1-3)[GlcNAc(b1-4)][Neu5Ac(a2-3)Gal(b1-4)GlcNAc(b1-4)Man(a1-6)]Man(b1-4)GlcNAc(b1-4)GlcNAc
# Procedure, shortened: as §1
# [3] = target: Neu5Ac(a2-3)Gal(b1-4)GlcNAc(b1-2)[Neu5Ac(a2-3)Gal(b1-4)GlcNAc(b1-6)]Man(a1-6)[Neu5Ac(a2-3)Gal(b1-4)GlcNAc(b1-2)Man(a1-3)][GlcNAc(b1-4)]Man(b1-4)GlcNAc(b1-4)GlcNAc
# Procedure, shortened: as §1
# [4] = target: Neu5Ac(a2-3)Gal(b1-4)GlcNAc(b1-3)Gal
# Procedure, shortened: as §1
# [5] = target: Neu5Ac(a2-3)Gal(b1-4)GlcNAc(b1-3)Gal(b1-3)GlcNAc
# Procedure, shortened: as §1
# [6] = target: Neu5Ac(a2-3)Gal(b1-4)GlcNAc(b1-3)Gal(b1-4)GlcNAc
# Procedure, shortened: as §1
# [7] = target: Neu5Ac(a2-3)Gal(b1-4)GlcNAc(b1-3)Gal(b1-4)GlcNAc(b1-2)Man(a1-3)[Neu5Ac(a2-3)Gal(b1-4)GlcNAc(b1-3)Gal(b1-4)GlcNAc(b1-2)Man(a1-6)]Man(b1-4)GlcNAc(b1-4)GlcNAc
# Procedure, shortened: as §1
# [8] = target: Neu5Ac(a2-3)Gal(b1-4)GlcNAc(b1-3)Gal(b1-4)GlcNAc(b1-3)Gal(b1-4)GlcNAc
# Procedure, shortened: as §1
# [9] = target: Neu5Ac(a2-3)Gal(b1-4)GlcNAc(b1-3)Gal(b1-4)GlcNAc(b1-3)Gal(b1-4)GlcNAc(b1-2)Man(a1-3)[Neu5Ac(a2-3)Gal(b1-4)GlcNAc(b1-3)Gal(b1-4)GlcNAc(b1-3)Gal(b1-4)GlcNAc(b1-2)Man(a1-6)]GalNAc
# Procedure, shortened: as §1
# [10] = target: Neu5Ac(a2-3)Gal(b1-4)GlcNAc(b1-3)Gal(b1-4)GlcNAc(b1-3)GalNAc
# Procedure, shortened: as §1
# [11] = target: Neu5Ac(a2-3)Gal(b1-4)GlcNAc(b1-3)Gal(b1-4)GlcNAc(b1-3)[Neu5Ac(a2-3)Gal(b1-4)GlcNAc(b1-3)Gal(b1-4)GlcNAc(b1-6)]GalNAc
# Procedure, shortened: as §1
# [12] = target: Neu5Ac(a2-3)Gal(b1-4)GlcNAc(b1-3)Gal(b1-4)GlcNAc(b1-6)[Gal(b1-3)]GalNAc
# Procedure, shortened: as §1
# [13] = target: Neu5Ac(a2-3)Gal(b1-4)GlcNAc(b1-3)Gal(b1-4)[Fuc(a1-3)]GlcNAc
# Procedure, shortened: as §1
# [14] = target: Neu5Ac(a2-3)Gal(b1-4)GlcNAc(b1-3)GalNAc
# Procedure, shortened: as §1
# [15] = target: Neu5Ac(a2-3)Gal(b1-4)GlcNAc(b1-3)[Neu5Ac(a2-3)Gal(b1-4)GlcNAc(b1-6)]GalNAc
# Procedure, shortened: as §1
# [16] = target: Neu5Ac(a2-3)Gal(b1-4)GlcNAc(b1-6)GalNAc
# Procedure, shortened: as §1
# [17] = target: Neu5Ac(a2-3)Gal(b1-4)GlcNAc(b1-6)[Gal(b1-3)]GalNAc
# Procedure, shortened: as §1
# [18] = target: Neu5Ac(a2-3)Gal(b1-4)GlcNAc(b1-6)[Neu5Ac(a2-3)Gal(b1-3)]GalNAc
# Procedure, shortened: as §1
# [19] = target: Neu5Ac(a2-3)Gal(b1-4)GlcNAc6S
# Procedure, shortened: as §1
# [20] = target: Neu5Ac(a2-3)Gal(b1-4)[Fuc(a1-3)]GlcNAc
# Procedure, shortened: as §1
# [21] = target: Neu5Ac(a2-3)Gal(b1-4)[Fuc(a1-3)]GlcNAc(b1-2)Man
# Procedure, shortened: as §1
# [22] = target: Neu5Ac(a2-3)Gal(b1-4)[Fuc(a1-3)]GlcNAc(b1-3)Gal
# Procedure, shortened: as §1
# [23] = target: Neu5Ac(a2-3)Gal(b1-4)[Fuc(a1-3)]GlcNAc(b1-3)Gal(b1-4)GlcNAc
# Procedure, shortened: as §1
# [24] = target: Neu5Ac(a2-3)Gal(b1-4)[Fuc(a1-3)]GlcNAc(b1-3)Gal(b1-4)[Fuc(a1-3)]GlcNAc(b1-3)Gal(b1-4)[Fuc(a1-3)]GlcNAc
# Procedure, shortened: as §1
# [25] = target: Neu5Ac(a2-3)Gal(b1-4)[Fuc(a1-3)]GlcNAc(b1-3)GalNAc
# Procedure, shortened: as §1
# [26] = target: Neu5Ac(a2-3)Gal(b1-4)[Fuc(a1-3)]GlcNAc(b1-6)[Gal(b1-3)]GalNAc
# Procedure, shortened: as §1
# [27] = target: Neu5Ac(a2-3)Gal(b1-4)[Fuc(a1-3)]GlcNAc(b1-6)[Neu5Ac(a2-3)Gal(b1-3)]GalNAc
# Procedure, shortened: as §1
# [28] = target: Neu5Ac(a2-3)Gal(b1-4)[Fuc(a1-3)]GlcNAc6S
# Procedure, shortened: as §1
# [29] = target: Neu5Ac(a2-3)Gal6S(b1-4)GlcNAc
# Procedure, shortened: as §1
# [30] = target: Neu5Ac(a2-3)Gal6S(b1-4)[Fuc(a1-3)]GlcNAc
# Procedure, shortened: as §1
# Neu5Ac(a2-3)GalNAc = target: Neu5Ac(a2-3)GalNAc
# Procedure, shortened: as §1
# [31] = target: Neu5Ac(a2-3)GalNAc(b1-4)GlcNAc
# Procedure, shortened: as §1
# [32] = target: Neu5Ac(a2-3)[GalNAc(b1-4)]Gal(b1-4)Glc
# Procedure, shortened: as §1
# [33] = target: Neu5Ac(a2-3)[GalNAc(b1-4)]Gal(b1-4)GlcNAc
# Procedure, shortened: as §1
# [34] = target: Neu5Ac(a2-3)[GalNAc(b1-4)]Gal(b1-4)GlcNAc(b1-3)GalNAc
# Procedure, shortened: as §1
# [35] = target: Neu5Ac(a2-3)[Neu5Ac(a2-6)]GalNAc
# Procedure, shortened: as §1
# Neu5Ac(a2-6)Gal = target: Neu5Ac(a2-6)Gal
# Procedure, shortened: as §1
# [36] = target: Neu5Ac(a2-6)Gal(b1-3)GlcNAc(b1-3)[Gal(b1-4)GlcNAc(b1-6)]Gal(b1-4)Glc
# Procedure, shortened: as §1
# Neu5Ac(a2-6)Gal(b1-4)Glc = target: Neu5Ac(a2-6)Gal(b1-4)Glc
# Procedure, shortened: as §1
# [37] = target: Neu5Ac(a2-6)Gal(b1-4)GlcNAc
# Procedure, shortened: as §1
# [38] = target: Neu5Ac(a2-6)Gal(b1-4)GlcNAc(b1-2)Man
# Procedure, shortened: as §1
# [39] = target: Neu5Ac(a2-6)Gal(b1-4)GlcNAc(b1-2)Man(a1-3)Man(b1-4)GlcNAc(b1-4)GlcNAc
# Procedure, shortened: as §1
# [40] = target: Neu5Ac(a2-6)Gal(b1-4)GlcNAc(b1-2)Man(a1-3)[Gal(b1-4)GlcNAc(b1-2)Man(a1-6)]Man(b1-4)GlcNAc(b1-4)GlcNAc
# Procedure, shortened: as §1
# [41] = target: Neu5Ac(a2-6)Gal(b1-4)GlcNAc(b1-2)Man(a1-3)[GlcNAc(b1-2)Man(a1-6)]Man(b1-4)GlcNAc(b1-4)GlcNAc
# Procedure, shortened: as §1
# [42] = target: Neu5Ac(a2-6)Gal(b1-4)GlcNAc(b1-2)Man(a1-3)[GlcNAc(b1-4)][Neu5Ac(a2-6)Gal(b1-4)GlcNAc(b1-2)Man(a1-6)]Man(b1-4)GlcNAc(b1-4)GlcNAc
# Procedure, shortened: as §1
binder,measurement,setting,value
B1,glycan array binding signal (z-score),[1],-0.466
same,glycan array binding signal (z-score),[2],-0.336
same,glycan array binding signal (z-score),[3],0.255
same,glycan array binding signal (z-score),[4],0.592
same,glycan array binding signal (z-score),[5],0.863
same,glycan array binding signal (z-score),[6],-0.104
same,glycan array binding signal (z-score),[7],-0.195
same,glycan array binding signal (z-score),[8],-0.157
same,glycan array binding signal (z-score),[9],0.235
same,glycan array binding signal (z-score),[10],0.258
same,glycan array binding signal (z-score),[11],-0.456
same,glycan array binding signal (z-score),[12],-0.143
same,glycan array binding signal (z-score),[13],-0.716
same,glycan array binding signal (z-score),[14],0.359
same,glycan array binding signal (z-score),[15],-0.026
same,glycan array binding signal (z-score),[16],-0.567
same,glycan array binding signal (z-score),[17],-0.035
same,glycan array binding signal (z-score),[18],-0.06
same,glycan array binding signal (z-score),[19],0.276
same,glycan array binding signal (z-score),[20],-0.934
same,glycan array binding signal (z-score),[21],-0.242
same,glycan array binding signal (z-score),[22],-0.557
same,glycan array binding signal (z-score),[23],0.481
same,glycan array binding signal (z-score),[24],-1.71
same,glycan array binding signal (z-score),[25],1.42
same,glycan array binding signal (z-score),[26],0.404
same,glycan array binding signal (z-score),[27],0.143
same,glycan array binding signal (z-score),[28],-0.072
same,glycan array binding signal (z-score),[29],0.27
same,glycan array binding signal (z-score),[30],-1.16
same,glycan array binding signal (z-score),Neu5Ac(a2-3)GalNAc,-0.218
same,glycan array binding signal (z-score),[31],-0.034
same,glycan array binding signal (z-score),[32],-0.397
same,glycan array binding signal (z-score),[33],-0.758
same,glycan array binding signal (z-score),[34],0.039
same,glycan array binding signal (z-score),[35],-0.303
same,glycan array binding signal (z-score),Neu5Ac(a2-6)Gal,0.542
same,glycan array binding signal (z-score),[36],-1.02
same,glycan array binding signal (z-score),Neu5Ac(a2-6)Gal(b1-4)Glc,0.167
same,glycan array binding signal (z-score),[37],-0.535
same,glycan array binding signal (z-score),[38],-0.299
same,glycan array binding signal (z-score),[39],0.55
same,glycan array binding signal (z-score),[40],0.344
same,glycan array binding signal (z-score),[41],1.21
same,glycan array binding signal (z-score),[42],0.617

# Exported bar-delimited: entries from further up.
binder | measurement | setting | value
B1 | glycan array binding signal (z-score) | [8] | -0.157
same | glycan array binding signal (z-score) | [9] | 0.235
same | glycan array binding signal (z-score) | [10] | 0.258
same | glycan array binding signal (z-score) | [11] | -0.456
same | glycan array binding signal (z-score) | [12] | -0.143
same | glycan array binding signal (z-score) | [13] | -0.716
same | glycan array binding signal (z-score) | [14] | 0.359
same | glycan array binding signal (z-score) | [15] | -0.026
same | glycan array binding signal (z-score) | [16] | -0.567
same | glycan array binding signal (z-score) | [17] | -0.035
